Earlier results in US20110008495A1, “LIQUID DIETARY SUPPLEMENT COMPOSITION” (NAWGAN PRODUCTS, LLC, priority 2009, published 2011).
At least one structure is not confirmed: it was looked up by name or label, or the drawing left a doubt.

Tested on: healthy adults

## C[N+](C)(C)CCOP(=O)(O)OP(=O)([O-])OC[C@H]1O[C@@H](n2ccc(N)nc2=O)[C@H](O)[C@@H]1O [citicoline]
  brain function: significant alterations
